Screen size: about 340,000 compounds; about 4,500 (1.3%) were called active. This list was built around the results that the source calls inconclusive (neither active nor inactive); the mix of calls is not that of the screen. The call rests on the fitted dose curve; in most records, active means well fitted inhibition curve with a large enough effect; inconclusive means small, poorly fitted or top-dose-only effect, or another doubt; inactive means no such curve, though single readings can be large or run the other way. Potencies beside an inconclusive call are fits to weak or partial responses and may not hold up.
The compounds below were run against DNA polymerase beta (Homo sapiens) (UniProt P06746) (assay: qHTS Assay for Inhibitors of DNA Polymerase Beta). Conditions: Pol beta primer extension/strand displacement, fluorescence kinetic; activity change, negative = inhibition: at 114 µM (top of the series).
Method in brief: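 Human Pol beta at 10 nM; strand-displacement substrate 50 nM final. Compound exposure 15 min at room temperature before start, reaction 10 min at room temperature.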
With `S=c1[nH]nc(-c2ccc(Cl)cc2)n1/N=C/C=C/c1ccco1` the Potency was active: 25.1 µM.
`NS(=O)(=O)c1ccc(NC(=O)COC(=O)/C(=C/c2cccs2)c2cccs2)cc1` was tested, and the Potency was inconclusive: 17.8 µM [inhibitor, full curve].
For `CCOc1ccc(CN(C(=O)c2cc(=O)c3cc(Cl)ccc3o2)C2CCS(=O)(=O)C2)cc1` (stereo not given), the Potency was “inactive”.
With `O=C(N/N=C/c1ccc2c(c1)OCO2)c1ccc(COCC(F)(F)C(F)F)cc1` the Potency was inconclusive: 12.6 µM [inhibitor, partial curve].
For `Cc1cccc2cc(-c3nc4ccc(C(=O)O)cc4[nH]3)c(=O)oc12`, the Potency was inconclusive: 89.1 µM [inhibitor, single point].
For `CCOc1ccc(S(=O)(=O)N(CC(=O)N/N=C/c2ccc(-c3ccc([N+](=O)[O-])cc3)o2)c2ccccc2)cc1`, the Potency was active: 7.08 µM.
For `Cc1ccc(C(=O)OCc2nnc(-c3ccc(Br)cc3)o2)cc1`, the Potency was inconclusive: 0.355 µM [inhibitor, full curve, poor fit].
`COc1cc2nc(Nc3ccc(C)c(C)c3)nc(N)c2cc1OC` was tested, and the Potency was inconclusive: 89.1 µM [inhibitor, single point].
In the case of `O=C(NCC1CCCO1)c1ccc(NS(=O)(=O)c2cccs2)cc1` (stereo not given), the Potency is reported as inconclusive: 22.4 µM [inhibitor, single point].
With `Cc1cccc(OCCNc2cc(N3CCOCC3)ccc2[N+](=O)[O-])c1` the Potency was inconclusive: 1.12 µM [inhibitor, full curve].
In the case of `O=c1oc2c(O)c(O)cc3c(=O)oc4c(O)c(O)cc1c4c23`, the Potency is reported as active: 0.158 µM.
In the case of `O=c1c2c(nc3c(-c4ccc(Cl)cc4)c[nH]n13)CCC2`, the Potency is reported as active: 89.1 µM.
In the case of `Clc1cc(Br)ccc1OCCCNCc1ccccc1`, the Potency is reported as inconclusive: 3.98 µM [inhibitor, single point].
For `O=C(Cn1nnc(-c2ccccc2Cl)n1)N1CCCCC1`, the Potency was inconclusive: 39.8 µM [inhibitor, single point].
`Cc1ccccc1NC(=O)c1ccc2snnc2c1` was tested, and the Potency was inconclusive: 5.01 µM [inhibitor, full curve, poor fit].
In the case of `O=C(Cn1ncc2c3ccccc3n(Cc3cccc(Cl)c3)c2c1=O)NCc1ccccn1`, the activity change, negative = inhibition is reported as inconclusive: -109% [inhibitor].
With `O=C(NCC(c1ccc2c(c1)OCO2)N1CCOCC1)C(=O)Nc1ccc(Cl)cc1` (stereo not given) the Potency was inconclusive: 89.1 µM [inhibitor, single point].
`Cc1ccc(SCC(=O)NC(=O)NCc2ccco2)c(C)c1` was tested, and the Potency was active: 25.1 µM.
In the case of `CC1=C/C(=C(\c2cc(C)c(O)c(Br)c2)c2ccccc2S(=O)(=O)O)C=C(Br)C1=O`, the Potency is reported as inconclusive: 100 µM [inhibitor, single point].
With `O=C(O)CN1C(=O)/C(=C\c2cn(-c3ccccc3)nc2-c2ccccc2)SC1=S` the Potency was inconclusive: 79.4 µM [inhibitor, single point].
For `COc1ccc(-c2nn(-c3ccccc3)cc2/C=C2/SC(=S)N(CCC(=O)O)C2=O)cc1`, the Potency was active: 31.6 µM.
For `COc1ccc(CNC(=O)Cn2c(=O)n3nc(-c4cccc(F)c4)nc3c3ccccc32)cc1OC`, the Potency was “inactive”.
`O=C(CNS(=O)(=O)c1ccc2ccccc2c1)OCC(=O)c1ccc(Br)s1` was tested, and the Potency was inconclusive: 4.47 µM [inhibitor, partial curve, poor fit].
`Cc1cc(C(=O)NCc2ccc(C(=O)O)o2)c(C)o1` was tested, and the Potency was active: 28.2 µM.
For `S=C(S)N1CCCC1`, the Potency was “inactive”.
In the case of `COc1cc2ccccc2cc1C(=O)Nc1ccccc1Cl`, the Potency is reported as inconclusive: 1.58 µM [inhibitor, full curve, poor fit].
For `Cc1ccc(-c2nc3ccccc3nc2NN)cc1`, the Potency was inconclusive: 70.8 µM [inhibitor, single point].
In the case of `COc1ccc(-c2nc(CSc3nnc(C)n4c3cc3sccc34)c(C)o2)cc1`, the Potency is reported as “inactive”.
With `O=C(NC(=S)NCc1nc2ccccc2[nH]1)c1ccccc1F` the Potency was inconclusive: 89.1 µM [inhibitor, single point].
In the case of `O=C(Cn1ncc2c1-c1ccccc1OC2)Nc1ccc(S(=O)(=O)N2CCCCC2)cc1`, the Potency is reported as inconclusive: 28.2 µM [inhibitor, single point].
With `O=C1NC2(CCCCC2)C(=O)N1Cc1cc(=O)n2ccsc2n1` the Potency was inconclusive: 20 µM [inhibitor, partial curve].
`CCOC(=O)CSc1ncnc2c1cnn2-c1ccc(C)cc1` was tested, and the Potency was inconclusive: 0.398 µM [inhibitor, partial curve, poor fit].
In the case of `Cc1nc(C)c(C(=O)Nc2ncc([N+](=O)[O-])s2)o1`, the Potency is reported as active: 15.8 µM.
For `COc1c(C)cccc1C(=O)Nc1cc(Cl)ccc1N1CCOCC1`, the Potency was inconclusive: 35.5 µM [inhibitor, single point].
`CNC(=S)Nc1cc(C)ccc1OC(F)F` was tested, and the Potency was “inactive”.
For `COc1ccc(NC(=O)C2CCCN(c3c4c(nc5ncnn35)CCC4)C2)cc1OC` (stereo not given), the Potency was inconclusive: 25.1 µM [inhibitor, single point].
`CC(Oc1ccc(Br)cc1)C(=O)N(Cc1nc(-c2ccccc2)no1)C(C)C` (stereo not given) was tested, and the Potency was “inactive”.
For `CCCCn1c(=O)n(CC(O)c2ccccc2)c(=O)c2c1ncn2C1CCCC1` (stereo not given), the Potency was inconclusive: 10 µM [inhibitor, full curve, poor fit].
In the case of `COC(=O)CCC(=O)OC1(C)C(=O)C=C2C=C3CCCN3C=C2C1=O` (stereo not given), the Potency is reported as “inactive”.
For `CC(C)(C)c1nc2c(C#N)c(-c3ccc(Cl)cc3)ccn2n1`, the Potency was inconclusive: 20 µM [inhibitor, partial curve].
`Cc1ccc(/C=C/c2onc(C)c2S(=O)(=O)N2CCC(C(=O)N3CCC(N(C)C(C)C)CC3)CC2)cc1` was tested, and the Potency was “inactive”.
With `Cn1nc(-c2ccc(NCCO)c([N+](=O)[O-])c2)c2ccccc2c1=O` the Potency was inconclusive: 89.1 µM [inhibitor, single point].
`COc1cc(OC)cc(-c2cc3nc(C)c(CCC(=O)Nc4nc(C)cs4)c(C)n3n2)c1` was tested, and the Potency was inconclusive: 89.1 µM [inhibitor, single point].
`CCc1c(C(=O)OCc2ccccc2)[nH]c(C)c1C` was tested, and the Potency was inconclusive: 89.1 µM [inhibitor, single point].
For `CCOC(=O)C1CCCN(C(=S)Nc2ccc(OC)cc2)C1` (stereo not given), the Potency was inconclusive: 89.1 µM [inhibitor, single point].
For `O=C(CSc1ncnc2sc3c(c12)CCCC3)c1ccccc1`, the Potency was inconclusive: 100 µM [inhibitor, single point].
With `CC(C)Cn1c(-c2ccco2)nc2c(c(=O)c3ccccc3n2C)c1=O` the Potency was active: 39.8 µM.
For `O=C(O)Cc1ccc(N=Nc2c(O)c(C(=O)O)cc3ccccc23)cc1`, the Potency was active: 31.6 µM.
In the case of `COc1ccc(NC(=O)NNC(=O)c2cc3ccccc3cc2O)cc1`, the Potency is reported as inconclusive: 63.1 µM [inhibitor, single point].
In the case of `COC(=O)C1C(=O)NC(SC)=C(C#N)C1c1ccccc1` (stereo not given), the Potency is reported as inconclusive: 0.316 µM [inhibitor, full curve, poor fit].
`O=C(NCc1ccco1)c1ccc2c(c1)C(=O)c1ccccc1-2` was tested, and the Potency was inconclusive: 56.2 µM [inhibitor, partial curve].
`O=C1/C(=C/C=C/c2ccco2)SC(=S)N1NS(=O)(=O)c1ccccc1` was tested, and the activity change, negative = inhibition was inconclusive: -108% [inhibitor].
In the case of `COc1ccc(OC)c(CN2CCC(Cc3ccccc3)CC2)c1`, the Potency is reported as inconclusive: 3.98 µM [inhibitor, single point].
With `O=C(Nc1nnc(CCc2ccccc2)s1)c1ccccc1F` the Potency was inconclusive: 89.1 µM [inhibitor, single point].
With `Cc1nc(C)c(-c2ccc(SCC(=O)Nc3ccc(Br)cc3)nn2)s1` the Potency was inconclusive: 79.4 µM [inhibitor, single point].
With `O=C(Nc1ccc2oc(-c3ccccc3)nc2c1)c1cccs1` the Potency was inconclusive: 17.8 µM [inhibitor, full curve, poor fit].
With `O=C(COc1ccccc1)NCCSCc1ccco1` the Potency was inconclusive: 1.26 µM [inhibitor, full curve, poor fit].
In the case of `COc1ccc(C=O)cc1COc1ccc(C)cc1[N+](=O)[O-]`, the Potency is reported as “inactive”.
In the case of `Oc1ccccc1-c1cc(C(F)(F)F)nc(-c2ccccc2)n1`, the Potency is reported as inconclusive: 89.1 µM [inhibitor, single point].
For `COc1cc(CNCc2ccccc2)c(Br)cc1OC1CCCC1`, the Potency was “inactive”.
For `N=C1C(c2nc(-c3ccc(Cl)cc3)cs2)=C(O)CN1NC(=O)c1ccc(O)cc1`, the activity change, negative = inhibition was inconclusive: -47.2% [inhibitor].
With `O=C(Nc1cccc(F)c1)C1CCCN(S(=O)(=O)c2cnc[nH]2)C1` (stereo not given) the Potency was inconclusive: 2.24 µM [inhibitor, partial curve, poor fit].
`COc1ccc2nc(C)c(C(=O)NN)cc2c1` was tested, and the Potency was inconclusive: 100 µM [inhibitor, single point].
`CCc1ccccc1NC(=O)Nc1c[nH]c(=O)[nH]c1=O` was tested, and the Potency was “inactive”.
`CN1C(=O)CC(N2CCN(c3ccc(Cl)cc3)CC2)C1=O` (stereo not given) was tested, and the Potency was inconclusive: 0.141 µM [inhibitor, full curve, poor fit].
For `CCCCOc1ccc(C(=O)NCCS(=O)(=O)N2CCN(c3ccc(F)cc3)CC2)cc1`, the Potency was inconclusive: 25.1 µM [inhibitor, full curve].
For `Cc1ccc(NC(=O)CCC(=O)N/N=C/c2coc3ccccc3c2=O)cc1`, the activity change, negative = inhibition was inconclusive: -39.6% [inhibitor].
For `COCCOC(=O)C1=C(C)NC(=O)NC1c1cccc2ccccc12` (stereo not given), the Potency was “inactive”.
`CCc1ccc(CN(C)CCc2ccccn2)cc1` was tested, and the Potency was inconclusive: 1 µM [inhibitor, full curve, poor fit].
With `CCc1ccc(-c2nc(CSCC(=O)N3CCN(c4ncccn4)CC3)c(C)o2)cc1` the Potency was inconclusive: 25.1 µM [inhibitor, single point].
On the % scale 0 is the no-effect control and ±100 the full control effect; potency means the concentration at half of the fitted maximal effect.
